# Hit rate of the full screen: of about 400,000 compounds, about 5,500 (1.4%) were called active. Inconclusive means that the source gave no clear call. Such entries were picked first, then a sample of the others. Calls come from the whole dose curve; as a rule, active = well fitted cell-killing curve with a large enough effect; inconclusive = small, poorly fitted or top-dose-only effect, or effect the other way; inactive = flat fitted curve, though single readings scatter. Potencies beside an inconclusive call are fits to weak or partial responses and may not hold up.
# Test: qHTS assay for MDR1-selective chemotherapeutics: Primary screen using the parental adenocarcinoma cell KB-3-1; note: nearly all actives have a fitted effect of over 60% in size
# Settings: KB-3-1 viability, CellTiter-Glo ATP luminescence, 72 h; activity change, negative = cytotoxic: at 46.1 µM (top of the series)
# In short: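 Luminescent ATP read-out (CellTiter-Glo) measures survival of drug-naive KB-3-1 cells after 72 h compound exposure at 37 °C. Titration series was screened from lowest to highest concentration, with DMSO vehicle plates as background controls.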
# % is set by controls: 0 for no effect and ±100 for the full control effect; potency is the fitted concentration of half-maximal effect.
SMILES,Potency,"activity change, negative = cytotoxic"
CCc1nc2ccc(C(=O)NCc3cccs3)cn2c1N(CCC(C)C)CCN(C)C,inactive,
CCOC(=O)C1=CN(Cc2cccc(F)c2)S(=O)(=O)N(CC)C1c1ccc(F)c(Cl)c1 (stereo not given),"inconclusive: 20.6 µM [cytotoxic, single point]",
CCCC(c1c(C)n(C)n(-c2ccccc2)c1=O)c1c(C)n(C)n(-c2ccccc2)c1=O,active: 20.6 µM,
O=C(Nc1nc([C@@H]2O[C@H](CO)[C@@H](O)[C@H](O)[C@H]2O)cs1)NC(c1ccccc1)c1ccccc1,active: 18.4 µM,
O=C1c2cccc3c([N+](=O)[O-])ccc(c23)C(=O)N1Cc1cccnc1,"inconclusive: 18.4 µM [cytotoxic, single point]",
CC(=O)N(Cc1ccc(F)cc1)C1=C(NCc2ccccc2)C(=O)c2ccccc2C1=O,"inconclusive: 2.82 µM [cytotoxic, partial curve, poor fit]",
CC1CCCN(S(=O)(=O)c2cc3c(cc2Cl)NC(=O)CO3)C1 (stereo not given),inactive,
O=C(CSc1nc2ccccc2c(=O)n1CC1CCCCC1)N1CCOCC1,inactive,
O=C(NNc1nc2ccccc2o1)c1ccccc1,inactive,
Cc1ccc(C)c(S(=O)(=O)N2CCN(c3ncnc4sccc34)CC2)c1,active: 9.2 µM,
Cc1cccc(N2CCN(C(=O)c3cccc(N4CCCC4=O)c3)CC2)c1C,"inconclusive: 16.4 µM [cytotoxic, single point]",
COCCCNC(=O)c1ccc2c(c1)N=C(C)c1c(C)ccc(C)c1S2,active: 0.0164 µM,
C[C@]12CC[C@@H]3c4ccc(OC(=O)c5ccccc5)cc4CC[C@H]3[C@@H]1CC[C@@H]2O,"inconclusive: 29.1 µM [cytotoxic, single point]",
Cc1cccc(-c2nc(SCC(=O)Nc3cc(C)on3)c3c(=O)n(C)c(=O)n(C)c3n2)c1,inactive,
CN(C(=O)COC(=O)C1CCN(S(=O)(=O)c2c(Cl)cccc2Cl)CC1)c1ccccc1,inactive,
CN(CCO)c1cc(Sc2nc3ccccc3s2)c2nonc2c1[N+](=O)[O-],"inconclusive: 29.1 µM [cytotoxic, single point]",
COc1ccc(N2CCN(c3ccc(-c4nc(-c5ccccc5C)no4)cc3[N+](=O)[O-])CC2)cc1,inactive,
CC[C@H](C)[C@H]1CNC(=S)N1CC1CCN(CCC23CC4CC(CC(C4)C2)C3)CC1,"inconclusive: 32.6 µM [cytotoxic, single point]",
Cc1ccc(NC(=S)Nc2cccnc2)c(S(=O)(=O)N2CCCCC2)c1,"inconclusive: 32.6 µM [cytotoxic, single point]",
CC(O)(c1ccccc1)c1nc(-c2ccncc2)cs1 (stereo not given),inactive,
COc1ccccc1NC(=S)NC1CCCCCCCCCCC1,"inconclusive: 20.6 µM [cytotoxic, partial curve]",
COc1ccc(Cl)cc1-c1cc(C(=O)Nc2ccc(C(C)(C)C)cc2)[nH]n1,inactive,
CCc1noc(C)c1C(=O)N1CCCSC1=Nc1ccccc1C(C)C,"inconclusive: 0.0146 µM [cytotoxic, full curve]",

# Retrieved one by one from above (two):
SMILES,Potency,"activity change, negative = cytotoxic"
Cc1ccc(NC(=S)Nc2cccnc2)c(S(=O)(=O)N2CCCCC2)c1,"inconclusive: 32.6 µM [cytotoxic, single point]",
O=C(NNc1nc2ccccc2o1)c1ccccc1,inactive,

# Next structures follow.

SMILES,Potency,"activity change, negative = cytotoxic"
S=C(NCCCc1cnc[nH]1)NCCCN(Cc1ccc(Cl)cc1)c1ccc(-c2ccccc2)cn1,"inconclusive: 23.1 µM [cytotoxic, single point]",
CCOc1ccc(C2c3[nH]c4ccccc4c3CCN2C(=O)Cn2cncn2)cc1 (stereo not given),"inconclusive: 29.1 µM [rising, single point]",
CCC1=Nc2cc(C(=O)NCc3ccco3)ccc2Sc2ccc(C)cc21,"inconclusive: 0.58 µM [cytotoxic, full curve, poor fit]",
COCc1cc(C)nc(SCc2nc3ccccc3c(=O)[nH]2)c1C#N,inactive,
CC(NC(=O)c1cccc(S(=O)(=O)N2CCN(Cc3ccccc3)CC2)c1)c1ccccc1Cl (stereo not given),,inconclusive: -59.9%
COc1ccc(CCC(=O)Nc2ccc(Cl)c(S(=O)(=O)N3CCCC3)c2)cc1,inactive,
COc1ccccc1/C=C/C(=O)NCC(=O)N/N=C/c1cc(Br)ccc1OC,inactive,
COc1ccc(CNC(=O)c2cc3c(-c4ccccc4F)nn(C)c3s2)c(OC)c1,"inconclusive: 11.6 µM [cytotoxic, partial curve]",
Cc1ccc(-n2c(C)c3c(C)nnc(C)c3c2C)cc1C,"inconclusive: 29.1 µM [cytotoxic, single point]",
CC(C)c1ccccc1-n1c(SCC(=O)N2CCc3ccccc3C2)nc2ccccc2c1=O,"inconclusive: 23.1 µM [cytotoxic, single point]",
Cc1ccc(CSCC(=O)NCCCN2CCOCC2)cc1,,inconclusive: -24.7%
CCc1nc2ccccc2c(C(=O)OCC(=O)N(C)Cc2ccccc2)c1C,"inconclusive: 23.1 µM [cytotoxic, single point]",
CCOC(=O)Cn1nnc2c(sc3nc4c(c(-c5ccc(Cl)cc5)c32)CCC4)c1=O,"inconclusive: 29.1 µM [cytotoxic, single point]",
CC(CCC(C)[n+]1cccc(Br)c1)[n+]1cccc(Br)c1 (stereo not given),"inconclusive: 13 µM [rising, partial curve]",
COc1cc(C)c(Cl)cc1S(=O)(=O)NCCc1c(C)[nH]c2ccccc12,inactive,
COc1ccc2c(c1)CCc1c(C(=O)N3CCCc4ccccc43)noc1-2,active: 20.6 µM,
Cc1ccccc1C(=O)NNC(=O)c1cc(S(=O)(=O)N2CCOCC2)ccc1C,inactive,
Cc1ccc(-c2[nH]ncc2/C=N/n2c(COc3ccccc3)nc3ccccc3c2=O)cc1,"inconclusive: 25.9 µM [cytotoxic, single point]",
O=C(C=Cc1ccccn1)c1ccccc1O,"inconclusive: 29.1 µM [cytotoxic, single point]",
O=C1NC(=Nc2ccccc2)CS1,"inconclusive: 0.58 µM [rising, full curve]",
c1ccc(CNCCC(Cc2ccccc2)c2ccco2)cc1 (stereo not given),"inconclusive: 10.3 µM [cytotoxic, partial curve]",
CCOC(=O)N1CCC(Nc2c(NCCCOC)c(=O)c2=O)CC1,"inconclusive: 16.4 µM [cytotoxic, single point]",

# From PubChem BioAssay AID1347075 (National Center for Advancing Translational Sciences (NCATS), 2019)
